Some of the results follow. Most entries show no effect beyond the scatter of the controls.
The targets below were run with Cc1nc(Nc2ncc(C(=O)Nc3c(C)cccc3Cl)s2)cc(N2CCN(CCO)CC2)n1 [dasatinib] (assay: log2 fold change of tryptic peptide abundance, ligand vs vehicle (limited proteolysis) (log2 ratio); higher = more trypsin-susceptible (destabilized)). Settings: ligand concentration: 5 uM; sample: K562 cleared lysate.

By UniProt entry, the sequences of proteins in these tests, tags left out. Where a name states a change or a piece, a line headed by the entry shows the natural chain unless it says otherwise.
UniProt Q9BV68: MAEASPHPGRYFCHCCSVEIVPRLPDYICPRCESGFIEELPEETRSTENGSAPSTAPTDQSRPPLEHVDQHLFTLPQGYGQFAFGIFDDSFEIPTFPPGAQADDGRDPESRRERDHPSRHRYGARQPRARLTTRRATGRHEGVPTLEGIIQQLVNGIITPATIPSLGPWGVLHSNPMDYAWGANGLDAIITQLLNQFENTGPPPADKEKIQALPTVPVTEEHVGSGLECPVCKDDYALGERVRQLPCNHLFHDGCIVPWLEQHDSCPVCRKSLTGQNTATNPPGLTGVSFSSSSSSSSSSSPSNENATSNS
UniProt Q9H063: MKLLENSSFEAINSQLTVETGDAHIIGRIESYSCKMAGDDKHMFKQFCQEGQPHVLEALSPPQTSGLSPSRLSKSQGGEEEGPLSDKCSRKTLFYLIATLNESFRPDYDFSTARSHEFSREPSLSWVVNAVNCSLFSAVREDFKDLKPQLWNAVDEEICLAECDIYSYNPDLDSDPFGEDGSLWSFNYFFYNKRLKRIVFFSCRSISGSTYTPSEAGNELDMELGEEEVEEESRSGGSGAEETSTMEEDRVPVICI
UniProt Q9BVG3: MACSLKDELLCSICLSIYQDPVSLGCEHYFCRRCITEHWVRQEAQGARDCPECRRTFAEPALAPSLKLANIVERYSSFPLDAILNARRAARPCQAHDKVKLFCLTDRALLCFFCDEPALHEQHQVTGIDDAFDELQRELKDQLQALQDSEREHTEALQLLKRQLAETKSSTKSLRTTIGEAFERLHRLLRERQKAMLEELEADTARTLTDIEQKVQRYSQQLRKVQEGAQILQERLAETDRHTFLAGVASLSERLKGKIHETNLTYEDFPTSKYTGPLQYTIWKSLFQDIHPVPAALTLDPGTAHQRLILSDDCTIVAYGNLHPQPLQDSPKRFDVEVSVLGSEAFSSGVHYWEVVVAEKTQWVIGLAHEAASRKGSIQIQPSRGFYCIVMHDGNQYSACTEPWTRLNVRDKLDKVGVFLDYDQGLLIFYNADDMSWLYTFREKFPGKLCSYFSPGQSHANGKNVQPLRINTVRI
UniProt Q9BWK5: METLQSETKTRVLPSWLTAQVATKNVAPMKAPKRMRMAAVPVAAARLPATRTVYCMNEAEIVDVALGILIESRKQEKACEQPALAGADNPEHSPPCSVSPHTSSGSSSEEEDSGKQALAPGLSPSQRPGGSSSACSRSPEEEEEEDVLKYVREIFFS
UniProt Q9BWN1: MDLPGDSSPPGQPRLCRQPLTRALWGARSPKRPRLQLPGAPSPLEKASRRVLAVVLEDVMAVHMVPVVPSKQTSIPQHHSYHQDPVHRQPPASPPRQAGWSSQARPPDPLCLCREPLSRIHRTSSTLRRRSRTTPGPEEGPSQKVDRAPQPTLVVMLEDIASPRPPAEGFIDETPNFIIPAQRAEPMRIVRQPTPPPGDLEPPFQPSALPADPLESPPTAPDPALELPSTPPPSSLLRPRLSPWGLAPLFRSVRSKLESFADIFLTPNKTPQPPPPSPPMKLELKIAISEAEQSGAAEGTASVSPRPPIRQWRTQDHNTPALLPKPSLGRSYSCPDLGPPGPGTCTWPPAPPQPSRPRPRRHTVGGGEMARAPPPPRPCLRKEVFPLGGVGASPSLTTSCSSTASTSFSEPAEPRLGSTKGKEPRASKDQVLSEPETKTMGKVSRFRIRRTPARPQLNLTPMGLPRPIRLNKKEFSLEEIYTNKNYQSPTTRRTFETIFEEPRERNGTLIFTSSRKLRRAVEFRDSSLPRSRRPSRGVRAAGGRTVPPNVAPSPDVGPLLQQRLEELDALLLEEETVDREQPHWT
UniProt Q9GZN1, whole entry: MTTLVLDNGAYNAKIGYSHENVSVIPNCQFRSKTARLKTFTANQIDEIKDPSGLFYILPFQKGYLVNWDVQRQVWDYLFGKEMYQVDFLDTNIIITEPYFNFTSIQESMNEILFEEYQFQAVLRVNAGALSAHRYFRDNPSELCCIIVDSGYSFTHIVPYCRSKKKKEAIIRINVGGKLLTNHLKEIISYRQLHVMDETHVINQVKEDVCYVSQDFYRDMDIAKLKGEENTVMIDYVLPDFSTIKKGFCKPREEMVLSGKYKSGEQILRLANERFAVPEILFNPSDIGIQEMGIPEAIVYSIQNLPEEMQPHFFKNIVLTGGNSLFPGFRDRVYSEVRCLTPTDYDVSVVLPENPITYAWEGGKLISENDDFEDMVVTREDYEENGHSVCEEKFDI
UniProt Q9BWG6: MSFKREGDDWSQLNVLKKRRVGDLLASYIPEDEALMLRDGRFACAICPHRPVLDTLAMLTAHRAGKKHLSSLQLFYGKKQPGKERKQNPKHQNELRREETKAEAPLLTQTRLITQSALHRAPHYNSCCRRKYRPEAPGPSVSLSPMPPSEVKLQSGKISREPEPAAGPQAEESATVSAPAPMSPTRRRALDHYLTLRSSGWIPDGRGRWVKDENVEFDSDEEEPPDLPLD
UniProt Q9H0C5: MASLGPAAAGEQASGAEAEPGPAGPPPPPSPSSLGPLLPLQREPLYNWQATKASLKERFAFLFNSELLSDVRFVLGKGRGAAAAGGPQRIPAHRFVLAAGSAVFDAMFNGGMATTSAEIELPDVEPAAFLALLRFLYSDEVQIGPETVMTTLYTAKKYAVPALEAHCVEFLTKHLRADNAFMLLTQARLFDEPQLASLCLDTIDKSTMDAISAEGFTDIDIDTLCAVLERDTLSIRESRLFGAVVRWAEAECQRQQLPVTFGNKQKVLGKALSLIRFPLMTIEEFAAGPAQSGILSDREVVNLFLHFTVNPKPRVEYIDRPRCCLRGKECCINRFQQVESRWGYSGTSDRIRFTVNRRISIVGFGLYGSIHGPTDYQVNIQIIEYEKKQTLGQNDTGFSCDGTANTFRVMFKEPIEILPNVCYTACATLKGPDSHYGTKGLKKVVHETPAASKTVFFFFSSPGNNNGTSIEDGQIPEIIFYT
UniProt Q9BYI3: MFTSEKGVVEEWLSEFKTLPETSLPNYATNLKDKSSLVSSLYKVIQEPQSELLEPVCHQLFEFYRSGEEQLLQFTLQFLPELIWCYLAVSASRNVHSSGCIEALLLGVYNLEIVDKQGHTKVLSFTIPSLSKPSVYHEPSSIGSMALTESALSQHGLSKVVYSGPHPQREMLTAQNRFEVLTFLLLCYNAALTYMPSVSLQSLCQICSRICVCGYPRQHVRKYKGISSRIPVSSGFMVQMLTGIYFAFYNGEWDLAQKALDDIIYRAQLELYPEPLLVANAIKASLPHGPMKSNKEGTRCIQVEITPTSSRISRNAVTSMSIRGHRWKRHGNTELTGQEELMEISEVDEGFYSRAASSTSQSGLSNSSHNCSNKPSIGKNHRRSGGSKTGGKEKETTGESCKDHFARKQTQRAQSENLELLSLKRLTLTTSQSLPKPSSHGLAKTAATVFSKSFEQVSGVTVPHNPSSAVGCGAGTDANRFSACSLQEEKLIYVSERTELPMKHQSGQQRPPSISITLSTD
UniProt Q9BV40: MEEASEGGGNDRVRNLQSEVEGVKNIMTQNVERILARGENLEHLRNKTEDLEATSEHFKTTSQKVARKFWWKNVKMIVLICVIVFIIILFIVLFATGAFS
UniProt Q9C030: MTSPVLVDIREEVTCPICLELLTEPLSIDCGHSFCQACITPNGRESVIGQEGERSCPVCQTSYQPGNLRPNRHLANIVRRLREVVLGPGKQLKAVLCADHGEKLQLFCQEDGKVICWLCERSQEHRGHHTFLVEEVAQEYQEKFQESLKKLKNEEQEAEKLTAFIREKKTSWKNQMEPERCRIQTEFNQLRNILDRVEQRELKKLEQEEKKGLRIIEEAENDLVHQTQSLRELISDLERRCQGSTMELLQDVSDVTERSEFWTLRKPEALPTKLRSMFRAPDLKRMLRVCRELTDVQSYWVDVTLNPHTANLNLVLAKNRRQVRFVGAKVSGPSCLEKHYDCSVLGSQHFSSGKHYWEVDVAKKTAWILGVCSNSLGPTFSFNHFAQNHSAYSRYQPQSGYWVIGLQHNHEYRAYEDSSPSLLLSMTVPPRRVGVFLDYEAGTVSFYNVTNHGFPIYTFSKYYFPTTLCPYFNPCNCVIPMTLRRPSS
UniProt Q9H081: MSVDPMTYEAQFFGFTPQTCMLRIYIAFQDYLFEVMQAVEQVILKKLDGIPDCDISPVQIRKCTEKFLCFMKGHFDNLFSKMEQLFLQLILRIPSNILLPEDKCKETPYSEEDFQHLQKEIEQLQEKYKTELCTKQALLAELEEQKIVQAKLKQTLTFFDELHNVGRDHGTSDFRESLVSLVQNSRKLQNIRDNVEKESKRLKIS
UniProt Q9BW91: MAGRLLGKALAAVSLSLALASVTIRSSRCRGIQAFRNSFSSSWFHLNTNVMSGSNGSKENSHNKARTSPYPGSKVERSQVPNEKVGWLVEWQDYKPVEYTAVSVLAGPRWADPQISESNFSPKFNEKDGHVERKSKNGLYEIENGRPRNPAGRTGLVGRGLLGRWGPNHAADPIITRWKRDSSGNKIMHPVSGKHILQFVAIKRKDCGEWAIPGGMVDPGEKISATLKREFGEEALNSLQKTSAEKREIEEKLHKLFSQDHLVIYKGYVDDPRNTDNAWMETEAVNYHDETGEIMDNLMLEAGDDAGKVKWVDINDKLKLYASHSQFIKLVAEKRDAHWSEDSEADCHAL
UniProt Q9BXV9: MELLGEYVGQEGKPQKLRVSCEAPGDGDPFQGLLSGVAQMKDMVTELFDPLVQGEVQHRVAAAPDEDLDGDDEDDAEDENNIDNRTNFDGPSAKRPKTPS
UniProt Q9H074: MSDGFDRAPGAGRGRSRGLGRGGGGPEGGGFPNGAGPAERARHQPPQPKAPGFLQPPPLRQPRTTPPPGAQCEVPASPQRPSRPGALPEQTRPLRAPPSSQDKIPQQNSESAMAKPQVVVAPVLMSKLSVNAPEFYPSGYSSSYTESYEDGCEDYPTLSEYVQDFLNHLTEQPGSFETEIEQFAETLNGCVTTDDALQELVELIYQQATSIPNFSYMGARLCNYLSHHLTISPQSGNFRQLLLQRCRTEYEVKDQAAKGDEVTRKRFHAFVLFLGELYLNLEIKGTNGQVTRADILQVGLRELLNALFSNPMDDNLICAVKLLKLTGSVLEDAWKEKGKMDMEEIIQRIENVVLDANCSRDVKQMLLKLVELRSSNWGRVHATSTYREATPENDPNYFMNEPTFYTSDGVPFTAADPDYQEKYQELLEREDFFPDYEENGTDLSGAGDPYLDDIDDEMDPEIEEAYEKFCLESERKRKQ
UniProt Q9BW27: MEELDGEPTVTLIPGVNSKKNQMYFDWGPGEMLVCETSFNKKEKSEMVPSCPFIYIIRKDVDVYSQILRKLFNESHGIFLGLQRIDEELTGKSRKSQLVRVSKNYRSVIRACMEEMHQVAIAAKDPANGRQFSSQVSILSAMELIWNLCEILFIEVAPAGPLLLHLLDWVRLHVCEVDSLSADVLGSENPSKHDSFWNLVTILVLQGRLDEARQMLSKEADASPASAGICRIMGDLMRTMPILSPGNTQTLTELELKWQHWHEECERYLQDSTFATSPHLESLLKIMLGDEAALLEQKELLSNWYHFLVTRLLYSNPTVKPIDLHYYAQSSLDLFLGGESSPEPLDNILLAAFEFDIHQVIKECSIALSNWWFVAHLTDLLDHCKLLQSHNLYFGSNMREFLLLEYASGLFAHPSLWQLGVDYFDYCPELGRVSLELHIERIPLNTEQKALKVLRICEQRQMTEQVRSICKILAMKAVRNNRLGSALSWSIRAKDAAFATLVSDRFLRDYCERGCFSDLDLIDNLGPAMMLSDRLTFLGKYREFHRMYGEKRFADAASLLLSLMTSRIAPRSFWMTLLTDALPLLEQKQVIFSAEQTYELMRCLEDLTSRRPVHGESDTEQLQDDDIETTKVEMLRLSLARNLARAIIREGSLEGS
UniProt Q9C0I1: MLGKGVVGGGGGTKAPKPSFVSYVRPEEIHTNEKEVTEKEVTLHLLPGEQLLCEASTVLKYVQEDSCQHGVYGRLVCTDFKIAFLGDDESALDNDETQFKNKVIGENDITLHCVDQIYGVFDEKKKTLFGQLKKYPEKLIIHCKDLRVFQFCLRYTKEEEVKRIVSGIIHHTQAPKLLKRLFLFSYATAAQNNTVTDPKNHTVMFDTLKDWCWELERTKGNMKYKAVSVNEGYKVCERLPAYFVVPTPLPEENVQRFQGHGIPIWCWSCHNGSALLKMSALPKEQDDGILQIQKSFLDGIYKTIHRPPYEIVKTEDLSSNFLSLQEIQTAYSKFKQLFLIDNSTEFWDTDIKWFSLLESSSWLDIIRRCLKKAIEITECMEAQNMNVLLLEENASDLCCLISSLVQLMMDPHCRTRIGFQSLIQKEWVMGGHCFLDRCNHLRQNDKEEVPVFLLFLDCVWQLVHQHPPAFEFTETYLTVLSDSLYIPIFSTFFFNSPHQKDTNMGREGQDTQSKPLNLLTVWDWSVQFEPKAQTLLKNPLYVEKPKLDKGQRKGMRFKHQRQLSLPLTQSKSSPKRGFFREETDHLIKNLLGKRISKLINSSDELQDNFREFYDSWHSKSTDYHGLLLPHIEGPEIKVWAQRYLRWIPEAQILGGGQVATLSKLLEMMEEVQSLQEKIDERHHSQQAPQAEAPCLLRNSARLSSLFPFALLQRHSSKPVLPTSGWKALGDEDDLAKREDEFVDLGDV

Target	log2 fold change
RNF126 (peptide sequence: ERDHPSR, peptide start residue: 113) (UniProt Q9BV68)	-0.105
ANAPC1 (peptide sequence: VQYVVDHAMK, peptide start residue: 236) (UniProt Q9H1A4)	-0.348
MAF1 (peptide sequence: SQGGEEEGPLSDKCSRK, peptide start residue: 75) (UniProt Q9H063)	0.166
EDEM3 (peptide sequence: VPCGFAAMK, peptide start residue: 439) (UniProt Q9BZQ6)	0.187
UniProt Q9BVG3 (peptide sequence: TFAEPALAPSLK, peptide start residue: 56)	0.119
CYREN (peptide sequence: MAAVPVAAAR, peptide start residue: 37) (UniProt Q9BWK5)	-0.0993
UniProt Q9BWN1 (peptide sequence: TQDHNTPALLPKPSLGR, peptide start residue: 314)	-0.278
ACTR6 (peptide sequence: LKGEENTVMIDYVLPDFSTIKK, peptide start residue: 225) (UniProt Q9GZN1)	0.286
UniProt Q9GZT3 (peptide sequence: SINQPVAFVR, peptide start residue: 15)	0.141
MRPL4 (peptide sequence: VGLADLHPDVFATAPR, peptide start residue: 77) (UniProt Q9BYD3)	0.256
GZF1 (peptide sequence: AGPEEEEEEEEEDEEGEKKK, peptide start residue: 295) (UniProt Q9H116)	0.388
SCNM1 (peptide sequence: APHYNSCCRR, peptide start residue: 121) (UniProt Q9BWG6)	-0.152
BTBD1 (peptide sequence: EPLYNWQATK, peptide start residue: 43) (UniProt Q9H0C5)	-0.428
MRPL13 (peptide sequence: LWTPPEDYRL, peptide start residue: 169) (UniProt Q9BYD1)	-0.252
FAM126A (peptide sequence: LTLTTSQSLPKPSSHGLAK, peptide start residue: 426) (UniProt Q9BYI3)	-0.435
WDR61 (peptide sequence: LWDLENGK, peptide start residue: 90) (UniProt Q9GZS3)	0.105
VAMP8 (peptide sequence: TEDLEATSEHFK, peptide start residue: 48) (UniProt Q9BV40)	-0.133
UniProt Q9C030 (peptide sequence: IIEEAENDLVHQTQSLR, peptide start residue: 215)	0.19
MIS12 (peptide sequence: QALLAELEEQKIVQAK, peptide start residue: 136) (UniProt Q9H081)	0.284
NUDT9 (peptide sequence: RKDCGEWAIPGGMVDPGEK, peptide start residue: 204) (UniProt Q9BW91)	0.528
UniProt Q9BXV9 (peptide sequence: TNFDGPSAK, peptide start residue: 86)	0.0331
PAIP1 (peptide sequence: APGFLQPPPLR, peptide start residue: 50) (UniProt Q9H074)	0.17
KDM5D (peptide sequence: YCVFSHEELICK, peptide start residue: 639) (UniProt Q9BY66)	0.307
KIAA0586 (peptide sequence: LPDLPQNSVK, peptide start residue: 449) (UniProt Q9BVV6)	0.284
CEP250 (peptide sequence: LQDELELTR, peptide start residue: 2211) (UniProt Q9BV73)	0.478
NUP85 (peptide sequence: LFNESHGIFLGLQR, peptide start residue: 71) (UniProt Q9BW27)	0.366
UniProt Q9C0I1 (peptide sequence: STDYHGLLLPHIEGPEIK, peptide start residue: 620)	-0.704

Two consecutive entries from above, quoted:
Target	log2 fold change
MAF1 (peptide sequence: SQGGEEEGPLSDKCSRK, peptide start residue: 75) (UniProt Q9H063)	0.166
EDEM3 (peptide sequence: VPCGFAAMK, peptide start residue: 439) (UniProt Q9BZQ6)	0.187
